PubChem BioAssay AID1224830 | NIAID – 2016
Purpose: 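Genes whose knock-down alters the TNF-alpha reporter response to LPS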 (primary screen). System: human THP-1 monocytic leukaemia cells, TNF dual-luciferase reporter clone, PMA-differentiated to macrophage-like cells. Knock-down reagent: siRNA pool against human genes, 50 nM. Duration: LPS for 4 h, given about 3 days after siRNA transfection. Conditions: bacterial LPS (TLR4 ligand), 10 ng/ml. Detection: 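Ratio of firefly to renilla light, scaled to the plate median and expressed as a robust z-score per replicate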. Direction: TNF reporter robust z-score: higher = stronger TNF reporter response to LPS. Call rule: 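Each well counts as active if its z-score is over 2.8 or under -1.5; controls are left without a call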.
Shown is one part, drawn at random, of about 18,000 reagents. Of all reagents, about 2,900 (16%) are marked active. 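Calls are made per well; low scores hint the gene aids the LPS response, high scores that it dampens it.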 Repeated entries: four replicate wells of each siRNA pool. No sequences are given here.

no.	target gene	TNF reporter robust z-score	call
1	FKBP9	1.71	inactive
2	FKBP9	2.56	inactive
3	FKBP9	0.47	inactive
4	FKBP9	1.63	inactive
5	NAE1	0.65	inactive
6	NAE1	0.95	inactive
7	NAE1	2.01	inactive
8	AMOT	1.22	inactive
9	AMOT	1.16	inactive
10	AMOT	-0.2	inactive
11	AMOT	1.2	inactive
12	MARS1	0.06	inactive
13	MARS1	-0.34	inactive
14	MARS1	-0.54	inactive
15	MARS1	-0.4	inactive
16	CASR	0.59	inactive
17	CASR	1.09	inactive
18	CASR	0.91	inactive
19	CASR	0.86	inactive
20	ARHGAP29	1.79	inactive
21	ARHGAP29	0.32	inactive
22	ARHGAP29	0.56	inactive
23	ARHGAP29	0.8	inactive
24	PYY	-0.16	inactive
25	PYY	0.08	inactive
26	PYY	0.85	inactive
27	PYY	1.56	inactive
28	BMP6	0.44	inactive
29	BMP6	2.1	inactive
30	BMP6	0.84	inactive
31	CYP2C9	5.55	active
32	CYP2C9	0.39	inactive
33	CYP2C9	3.94	active
34	CYP2C9	2.51	inactive
35	PMP22	-0.59	inactive
36	PMP22	0.18	inactive
37	PMP22	-0.49	inactive
38	PMP22	0.66	inactive
39	ARLN	-0.8	inactive
40	ARLN	0.34	inactive
41	ARLN	0.62	inactive
42	ARLN	1.4	inactive
43	ARHGAP28	1.08	inactive
44	ARHGAP28	-0.43	inactive
45	ARHGAP28	2.05	inactive
46	ARHGAP28	3.17	active
47	HERC6	-0.69	inactive
48	HERC6	0.18	inactive
49	HERC6	-0.17	inactive
50	HERC6	0.92	inactive
51	PAX9	0.63	inactive
52	PAX9	0.69	inactive
53	PAX9	0.05	inactive
54	PAX9	1.68	inactive
55	ARHGEF10L	0.39	inactive
56	ARHGEF10L	1.38	inactive
57	ARHGEF10L	0.31	inactive
58	ARHGEF10L	2.41	inactive
59	CASD1	-0.88	inactive
60	CASD1	-0.54	inactive
61	CASD1	-0.49	inactive
62	CASD1	-0.26	inactive
63	SLC13A2	-1.17	inactive
64	SLC13A2	-0.88	inactive
65	SLC13A2	-1.64	active
66	SLC13A2	-1.42	inactive
67	STAU1	2.19	inactive
68	STAU1	3.22	active
69	STAU1	2.16	inactive
70	STAU1	1.82	inactive
71	ADAMTS15	-0.62	inactive
72	ADAMTS15	0.97	inactive
73	ADAMTS15	0.42	inactive
74	ADAMTS15	0.18	inactive
75	ATP2A2	-0.48	inactive
76	ATP2A2	-0.29	inactive
77	ATP2A2	-0.81	inactive
78	ATP2A2	-0.15	inactive
79	HSD17B3	0.73	inactive
80	HSD17B3	0.95	inactive
81	HSD17B3	-0.71	inactive
82	HSD17B3	0.06	inactive
83	TBC1D20	-0.7	inactive
84	TBC1D20	-0.91	inactive
85	TBC1D20	-0.83	inactive
86	TBC1D20	-0.64	inactive
87	MRPS27	-1.28	inactive
88	MRPS27	-1.52	active
89	MRPS27	-1.09	inactive
90	MRPS27	-0.73	inactive
91	EVL	-0.42	inactive
92	EVL	-0.75	inactive
93	EVL	-1.28	inactive
94	EVL	-0.18	inactive
95	MYL9	-0.5	inactive
96	MYL9	0.08	inactive
97	MYL9	-0.35	inactive
98	MYL9	-0.59	inactive
99	RPRD1B	-0.09	inactive
100	RPRD1B	0.24	inactive
101	RPRD1B	-0.32	inactive
102	RPRD1B	-0.28	inactive
103	MSH2	-0.58	inactive
104	MSH2	-0.52	inactive
105	MSH2	-1.21	inactive
106	MSH2	-1.06	inactive
107	FANCF	-0.16	inactive
108	FANCF	0.44	inactive
109	FANCF	0.22	inactive
110	FANCF	1.12	inactive
